Measurements as given in publication PMC4435044.
These are yes or no findings as the source states them, for the method shown. Binding seen in cells or lysates may run through a third protein. Some results given as binding are weak or reduced against the parent protein; the word gives no strength.

Protein sequences, listed by entry. Tags and fused reporters are not part of them. Residues count along the entry.
UniProt P62813, residues 28-455: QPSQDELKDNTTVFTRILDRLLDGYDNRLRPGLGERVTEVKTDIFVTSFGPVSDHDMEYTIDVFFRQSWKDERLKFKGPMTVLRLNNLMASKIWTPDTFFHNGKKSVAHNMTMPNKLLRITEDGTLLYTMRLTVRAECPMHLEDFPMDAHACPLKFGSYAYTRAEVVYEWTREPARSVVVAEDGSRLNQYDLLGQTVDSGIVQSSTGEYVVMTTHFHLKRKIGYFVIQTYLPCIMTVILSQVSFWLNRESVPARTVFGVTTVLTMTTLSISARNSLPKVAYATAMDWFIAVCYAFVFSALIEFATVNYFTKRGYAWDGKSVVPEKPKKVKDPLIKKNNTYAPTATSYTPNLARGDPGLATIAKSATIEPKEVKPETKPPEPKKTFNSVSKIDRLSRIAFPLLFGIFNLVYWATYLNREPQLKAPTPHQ
UniProt P15127, residues 764-1383: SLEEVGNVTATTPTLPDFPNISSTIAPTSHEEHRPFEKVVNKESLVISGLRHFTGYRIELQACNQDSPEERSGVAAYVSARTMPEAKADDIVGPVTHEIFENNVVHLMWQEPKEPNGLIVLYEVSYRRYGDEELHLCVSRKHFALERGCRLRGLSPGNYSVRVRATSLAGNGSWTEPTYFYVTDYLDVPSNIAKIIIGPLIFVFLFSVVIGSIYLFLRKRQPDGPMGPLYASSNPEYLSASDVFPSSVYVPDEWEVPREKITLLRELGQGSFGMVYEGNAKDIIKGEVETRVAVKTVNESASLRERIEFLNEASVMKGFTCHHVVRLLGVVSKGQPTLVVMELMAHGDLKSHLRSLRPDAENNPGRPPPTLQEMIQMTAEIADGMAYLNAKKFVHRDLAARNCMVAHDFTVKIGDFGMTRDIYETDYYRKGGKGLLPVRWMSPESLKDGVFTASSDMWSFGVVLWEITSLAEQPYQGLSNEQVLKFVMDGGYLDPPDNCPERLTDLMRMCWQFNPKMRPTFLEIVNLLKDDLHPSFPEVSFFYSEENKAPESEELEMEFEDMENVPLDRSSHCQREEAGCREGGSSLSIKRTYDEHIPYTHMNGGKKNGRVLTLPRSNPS

How the values were obtained:
[1] = target: GABAA receptor α1 subunit (rat (endogenous in primary cerebral cortical neuronal cultures)) (UniProt P62813); assay: co-IP; 500 μg RIPA lysate of high-density rat cortical neuronal cultures incubated overnight at 4°C with 2 μg anti-α1 subunit or anti-insulin receptor β chain antibody and protein A agarose, nondenaturing; blotted with anti-calnexin; cells treated beforehand at 37°C with vehicle, vigabatrin, valproic acid, NCC 05-2090, baclofen or picrotoxin
[2] = target: insulin receptor β chain (rat (endogenous in primary cerebral cortical neuronal cultures)) (UniProt P15127); assay: as above

B1: calnexin (protein, UniProt P35565 21-591)
chain: HDGHDDDMIDIEDDLDDVIEEVEDSKSKSDTSTPPSPKVTYKAPVPTGEVYFADSFDRGSLSGWILSKAKKDDTDDEIAKYDGKWEVDEMKETKLPGDKGLVLMSRAKHHAISAKLNKPFLFDTKPLIVQYEVNFQNGIECGGAYVKLLSKTSELNLDQFHDKTPYTIMFGPDKCGEDYKLHFIFRHKNPKTGVYEEKHAKRPDADLKTYFTDKKTHLYTLILNPDNSFEILVDQSVVNSGNLLNDMTPPVNPSREIEDPEDRKPEDWDERPKIADPDAVKPDDWDEDAPSKIPDEEATKPEGWLDDEPEYIPDPDAEKPEDWDEDMDGEWEAPQIANPKCESAPGCGVWQRPMIDNPNYKGKWKPPMIDNPNYQGIWKPRKIPNPDFFEDLEPFRMTPFSAIGLELWSMTSDIFFDNFIISGDRRVVDDWANDGWGLKKAADGAAEPGVVGQMLEAAEERPWLWVVYILTVALPVFLVILFCCSGKKQSNAMEYKKTDAPQPDVKDEEGKEEEKNKGDEEEEEEKLEEKQKSDAEEDGGTGSQDEEDSKPKAEEDEILNRSPRNRKPRRE
In the case of B1, the binding [1] is reported as “binds” and the binding [2] is reported as “binds”.
